Measured values published in doi:10.1101/2025.08.14.670437.

Chains of the proteins cited; added tags and fusions are not shown.
UniProt Q96PV6: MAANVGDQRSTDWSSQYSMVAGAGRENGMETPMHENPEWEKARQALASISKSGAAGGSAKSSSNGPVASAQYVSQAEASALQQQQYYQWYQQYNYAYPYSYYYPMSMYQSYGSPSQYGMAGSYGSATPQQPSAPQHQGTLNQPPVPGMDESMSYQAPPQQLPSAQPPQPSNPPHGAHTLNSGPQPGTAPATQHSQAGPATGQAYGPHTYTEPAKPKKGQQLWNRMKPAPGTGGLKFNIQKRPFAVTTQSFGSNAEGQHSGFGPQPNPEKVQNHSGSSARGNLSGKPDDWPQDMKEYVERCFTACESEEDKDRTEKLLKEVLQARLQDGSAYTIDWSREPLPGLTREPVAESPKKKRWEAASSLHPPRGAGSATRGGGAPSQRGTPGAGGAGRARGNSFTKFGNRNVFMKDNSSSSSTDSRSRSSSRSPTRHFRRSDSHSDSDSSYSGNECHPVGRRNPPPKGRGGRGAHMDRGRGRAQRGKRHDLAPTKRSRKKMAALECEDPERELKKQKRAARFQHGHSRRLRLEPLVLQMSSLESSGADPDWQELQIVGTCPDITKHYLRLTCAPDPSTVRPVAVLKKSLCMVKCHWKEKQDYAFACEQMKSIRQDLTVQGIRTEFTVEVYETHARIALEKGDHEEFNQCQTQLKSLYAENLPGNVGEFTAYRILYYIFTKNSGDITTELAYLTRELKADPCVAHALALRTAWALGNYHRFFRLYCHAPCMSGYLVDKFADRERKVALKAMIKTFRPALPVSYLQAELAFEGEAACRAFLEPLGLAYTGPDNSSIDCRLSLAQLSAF
UniProt P49790: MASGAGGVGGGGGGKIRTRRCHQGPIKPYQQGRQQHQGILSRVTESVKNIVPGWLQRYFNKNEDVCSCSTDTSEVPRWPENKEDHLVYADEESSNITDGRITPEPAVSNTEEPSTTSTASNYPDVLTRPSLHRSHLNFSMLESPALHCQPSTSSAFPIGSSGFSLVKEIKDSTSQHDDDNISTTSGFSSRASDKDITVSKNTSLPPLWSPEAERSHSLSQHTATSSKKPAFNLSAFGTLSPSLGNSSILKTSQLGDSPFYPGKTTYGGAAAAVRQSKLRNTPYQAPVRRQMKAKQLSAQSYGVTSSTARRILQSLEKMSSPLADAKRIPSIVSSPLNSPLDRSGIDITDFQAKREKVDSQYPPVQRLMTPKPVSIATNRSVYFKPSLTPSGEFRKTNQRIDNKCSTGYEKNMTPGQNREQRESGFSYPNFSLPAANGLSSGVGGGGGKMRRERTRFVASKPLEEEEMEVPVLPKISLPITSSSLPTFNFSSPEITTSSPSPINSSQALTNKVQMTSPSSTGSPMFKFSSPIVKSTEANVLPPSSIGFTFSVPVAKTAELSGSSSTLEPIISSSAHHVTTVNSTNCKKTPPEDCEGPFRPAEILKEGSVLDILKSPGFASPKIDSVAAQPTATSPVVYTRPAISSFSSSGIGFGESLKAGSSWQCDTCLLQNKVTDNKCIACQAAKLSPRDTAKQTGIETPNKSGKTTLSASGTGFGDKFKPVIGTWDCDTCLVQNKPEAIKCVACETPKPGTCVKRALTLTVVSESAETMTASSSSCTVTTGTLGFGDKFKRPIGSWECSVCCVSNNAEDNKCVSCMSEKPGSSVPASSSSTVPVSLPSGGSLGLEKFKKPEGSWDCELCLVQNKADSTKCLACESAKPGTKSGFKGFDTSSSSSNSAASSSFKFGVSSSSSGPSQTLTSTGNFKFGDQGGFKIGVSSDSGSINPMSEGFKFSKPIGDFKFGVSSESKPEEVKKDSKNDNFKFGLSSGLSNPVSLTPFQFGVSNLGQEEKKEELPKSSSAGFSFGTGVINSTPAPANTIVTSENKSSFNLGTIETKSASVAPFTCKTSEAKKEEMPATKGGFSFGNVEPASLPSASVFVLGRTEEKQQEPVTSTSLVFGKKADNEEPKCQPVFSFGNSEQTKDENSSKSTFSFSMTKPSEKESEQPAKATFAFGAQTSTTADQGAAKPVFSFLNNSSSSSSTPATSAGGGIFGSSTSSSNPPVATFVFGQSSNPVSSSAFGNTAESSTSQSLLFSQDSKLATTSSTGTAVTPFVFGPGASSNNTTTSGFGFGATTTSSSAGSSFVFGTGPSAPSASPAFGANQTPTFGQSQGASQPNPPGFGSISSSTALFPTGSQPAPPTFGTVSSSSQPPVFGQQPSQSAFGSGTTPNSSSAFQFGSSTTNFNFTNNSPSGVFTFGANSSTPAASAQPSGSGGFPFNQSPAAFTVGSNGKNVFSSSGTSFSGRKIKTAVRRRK

B1: ENY2 (protein, UniProt Q9NPA8 1-101)
chain: MVVSKMNKDAQMRAAINQKLIETGERERLKELLRAKLIECGWKDQLKAHCKEVIKEKGLEHVTVDDLVAEITPKGRALVPDSVKKELLQRIRTFLAQHASL
B2: CETN3 (protein, UniProt O15182 1-167)
chain: MSLALRSELVVDKTKRKKRRELSEEQKQEIKDAFELFDTDKDEAIDYHELKVAMRALGFDVKKADVLKILKDYDREATGKITFEDFNEVVTDWILERDPHEEILKAFKLFDDDDSGKISLRNLRRVARELGENMSDEELRAMIEEFDKDGDGEINQEEFIAIMTGDI
B3: NUP50 (protein, UniProt Q9UKX7 1-468)
chain: MAKRNAEKELTDRNWDQEDEAEEVGTFSMASEEVLKNRAIKKAKRRNVGFESDTGGAFKGFKGLVVPSGGGRFSGFGSGAGGKPLEGLSNGNNITSAPPFASAKAAADPKVAFGSLAANGPTTLVDKVSNPKTNGDSQQPSSSGLASSKACVGNAYHKQLAALNCSVRDWIVKHVNTNPLCDLTPIFKDYEKYLANIEQQHGNSGRNSESESNKVAAETQSPSLFGSTKLQQESTFLFHGNKTEDTPDKKMEVASEKKTDPSSLGATSASFNFGKKVDSSVLGSLSSVPLTGFSFSPGNSSLFGKDTTQSKPVSSPFPTKPLEGQAEGDSGECKGGDEEENDEPPKVVVTEVKEEDAFYSKKCKLFYKKDNEFKEKGIGTLHLKPTANQKTQLLVRADTNLGNILLNVLIPPNMPCTRTGKNNVLIVCVPNPPIDEKNATMPVTMLIRVKTSEDADELHKILLEKKDA

Molecular target: FLAG-LENG8 Full length (human) (UniProt Q96PV6)
Test: affinity purification with mass spectrometry; FLAG-tagged bait over-expressed in HEK293T; cleared sonicated lysate (20 mM HEPES-NaOH pH 7.9, 150 mM NaCl, 0.2% NP-40) on anti-FLAG M2 agarose, 4 °C, 2 h; eluted with 3× FLAG peptide; hits at Fold Enrichment ≥ 1.5 in both replicates

Row | Molecule | binding
1 | NUP153 (from UniProt P49790 1-1475) | no binding
2 | B1 | no binding
3 | B2 | no binding
4 | B3 | no binding

No constants are given. Whether binding was seen depends on the method and setting. In cells and extracts the contact can be indirect. Here binding means that the protein was enriched with, or labelled near, the bait; the list need not be complete. No binding means not detected with the bait.
